For at least one entry, the source does not settle the construct or the ends of the probe. Tags and fusion partners may be left off the protein sequences shown.
Biological target: T1, DNA topoisomerase I (Homo sapiens) (UniProt P11387)
T1 sequence (looked up, limits assumed): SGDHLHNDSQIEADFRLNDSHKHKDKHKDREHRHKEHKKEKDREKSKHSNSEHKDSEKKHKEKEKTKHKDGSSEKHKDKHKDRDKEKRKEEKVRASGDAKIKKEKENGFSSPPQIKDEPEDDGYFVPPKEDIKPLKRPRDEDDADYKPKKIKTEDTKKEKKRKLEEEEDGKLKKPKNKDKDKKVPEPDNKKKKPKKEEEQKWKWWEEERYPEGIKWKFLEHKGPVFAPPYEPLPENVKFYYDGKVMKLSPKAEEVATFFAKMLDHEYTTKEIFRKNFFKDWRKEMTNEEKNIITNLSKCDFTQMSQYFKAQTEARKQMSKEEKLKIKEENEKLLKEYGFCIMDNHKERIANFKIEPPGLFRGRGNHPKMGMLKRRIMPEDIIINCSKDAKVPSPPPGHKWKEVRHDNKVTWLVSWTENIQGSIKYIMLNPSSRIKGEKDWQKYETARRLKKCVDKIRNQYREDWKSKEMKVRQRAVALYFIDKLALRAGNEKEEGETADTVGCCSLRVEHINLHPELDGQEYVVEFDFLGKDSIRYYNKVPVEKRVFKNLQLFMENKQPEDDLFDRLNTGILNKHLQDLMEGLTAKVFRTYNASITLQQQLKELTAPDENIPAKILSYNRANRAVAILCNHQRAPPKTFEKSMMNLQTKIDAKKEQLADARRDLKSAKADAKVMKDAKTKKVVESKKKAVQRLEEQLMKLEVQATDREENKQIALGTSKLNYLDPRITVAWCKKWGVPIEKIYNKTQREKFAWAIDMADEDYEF
Assay: enzyme reaction in vitro
Settings: purified recombinant protein, protein details: Invitrogen, 10 units per reaction

| Sequence | activity on this sequence (TFO16-camptothecin conjugates: cleavage only at site b 3' of triplex, free camptothecins cleave at sites a-i, 10 mM MgCl2, 60 mM KCl, pH 7.5, 30 C, label: 32P 3' end) | activity on this sequence (conjugate-directed cleavage extended to this target, flanks not stated) |
| --- | --- | --- |
| GAATTCAAGCTTACACTCCCTATCAGTGATAGAGAGAGAGAAAAAAGAGAAGATCTGAGCTCGGTACCCTAGGATC / CTTAAGTTCGAATGTGAGGGATAGTCACTATCTCTCTCTCTTTTTTTCTCTTCTAGACTCGAGCCATGGGATCCTAG | active |  |
| GAAGAGGGAGAGAGAGAGAAGG / TCTTCTCCCTCTCTCTCTCTTCC [IGF-1 promoter 1 target] |  | active |

Reference: patent publication US20080108581A1, “Compounds and Their Use for Specific and Simultaneous Inhibition of Genes Involved In Diseases and Related Drugs” (INSTITUT NATIONAL DE LA SANTE ET DE LA RECHERCHE MEDICAL …, priority 2003, published 2008)
